# Laboratory results from the supplement of paper PMC4604168 (melanoma cell lines).
# Some of the results follow. Repeats are few or missing, and single values can be far off.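 The apoptosis fraction was the count of cleaved-PARP antibody-stained nuclei relative to all DNA-stained nuclei, imaged in 1,536-well plates. Screening doses were set so most cells survived, and baseline and induced cleaved-PARP levels vary greatly across cell lines.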
# System: COLO829
# Experiment: cleaved PARP positive nuclei fraction relative to DMSO control; melanoma cells; higher = more apoptosis
# Conditions: library dose: low library concentration; 72 h
row,Compound,cleaved PARP positive nuclei fraction [%]
1,"COc1cc([C@@H]2c3cc4c(cc3[C@@H](O[C@@H]3O[C@@H]5CO[C@@H](C)O[C@H]5[C@H](O)[C@H]3O)[C@H]3COC(=O)[C@H]23)OCO4)cc(OC)c1O [etoposide] + CC(C)CCN1c2nc(Nc3cc(F)c(O)c(F)c3)ncc2N(C)C(=O)C1C [BID1870] (first compound 0.02 µM, partner dose 0.2 µM)",139
2,"Cc1ccc(Nc2nccc(N(C)c3ccc4c(C)n(C)nc4c3)n2)cc1S(N)(=O)=O [Pazopanib] + CCN(CC)CCCCNc1ncc2cc(-c3cc(OC)cc(OC)c3)c(NC(=O)NC(C)(C)C)nc2n1 [PD173074] (first compound 0.4 µM, partner dose 0.1 µM)",78.2
3,"Cc1cn(-c2cc(NC(=O)c3ccc(C)c(Nc4nccc(-c5cccnc5)n4)c3)cc(C(F)(F)F)c2)cn1 [nilotinib] + COc1ccc2c(c1)CCC1C2CCC2(C)C(NCCCCCCN3C(=O)C=CC3=O)CCC12 [U73122] (first compound 0.2 µM, partner dose 0.4 µM)",162
4,"N#CC[C@H](C1CCCC1)n1cc(-c2ncnc3[nH]ccc23)cn1 [ruxolitinib] + COc1ccc2c(c1)CCC1C2CCC2(C)C(NCCCCCCN3C(=O)C=CC3=O)CCC12 [U73122] (first compound 1 µM, partner dose 0.4 µM)",73.4
5,"CCCCCCCCCCCCCCCCCCOP(=O)([O-])OC1CC[N+](C)(C)CC1 [Perifosine] + O=C(O)C(=O)Nc1sc2c(c1C(=O)O)CCNC2 [TCS401] (first compound 0.4 µM, partner dose 1.66667 µM)",90.3
6,"Cc1cn(-c2cc(NC(=O)c3ccc(C)c(Nc4nccc(-c5cccnc5)n4)c3)cc(C(F)(F)F)c2)cn1 [nilotinib] + COc1cc(N2CCC(N3CCN(C)CC3)CC2)ccc1Nc1ncc(Cl)c(Nc2ccccc2S(=O)(=O)C(C)C)n1 [NVP-TAE684] (first compound 0.2 µM, partner dose 0.08 µM)",61.5
7,"Cc1ccc(Nc2nccc(N(C)c3ccc4c(C)n(C)nc4c3)n2)cc1S(N)(=O)=O [Pazopanib] + O=C(Nc1ccccc1)c1cc([N+](=O)[O-])ccc1Cl [GW9662] (first compound 0.4 µM, partner dose 2 µM)",137
8,"O=C(Nc1cc(C(F)(F)F)cc(C(F)(F)F)c1)c1cc(Cl)ccc1O + O=C(O)C(=O)Nc1sc2c(c1C(=O)O)CCNC2 [TCS401] (first compound 0.016 µM, partner dose 1.66667 µM)",54.5
